The target of test [1] is T1, human protease nexin-1 (human) (UniProt P07093).
T1 sequence (looked up): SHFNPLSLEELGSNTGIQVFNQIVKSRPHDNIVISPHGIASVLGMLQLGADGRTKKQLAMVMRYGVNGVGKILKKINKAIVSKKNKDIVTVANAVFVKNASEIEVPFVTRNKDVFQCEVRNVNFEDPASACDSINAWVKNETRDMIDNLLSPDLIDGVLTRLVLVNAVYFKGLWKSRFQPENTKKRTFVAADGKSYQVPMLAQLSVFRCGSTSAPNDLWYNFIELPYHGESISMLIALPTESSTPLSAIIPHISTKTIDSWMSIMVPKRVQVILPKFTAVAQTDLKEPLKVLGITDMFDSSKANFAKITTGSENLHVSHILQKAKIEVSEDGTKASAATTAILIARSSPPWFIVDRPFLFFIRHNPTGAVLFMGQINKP
The experiment in a line: non-adsorbed phage ELISA, phage on coated antigen, anti-M13 detection. A general note: ELISA stands for enzyme-linked immunosorbent assay.

For test [2], the target named is T1, human protease nexin-1 (human). As to the kind of experiment: ELISA, 0.5 µg PN-1 coated per well, VHH 0.3 to 20 µg/mL, anti-cMyc detection.
The target is the same in test [3]. The experiment in a line: ELISA, 0.5 µg PN-1 coated per well, bivalent VHH 0.3 to 20 µg/mL, anti-6xHis detection.
The target of test [4] is T2, murine protease nexin-1 (murine) (UniProt Q07235).
T2 sequence (looked up): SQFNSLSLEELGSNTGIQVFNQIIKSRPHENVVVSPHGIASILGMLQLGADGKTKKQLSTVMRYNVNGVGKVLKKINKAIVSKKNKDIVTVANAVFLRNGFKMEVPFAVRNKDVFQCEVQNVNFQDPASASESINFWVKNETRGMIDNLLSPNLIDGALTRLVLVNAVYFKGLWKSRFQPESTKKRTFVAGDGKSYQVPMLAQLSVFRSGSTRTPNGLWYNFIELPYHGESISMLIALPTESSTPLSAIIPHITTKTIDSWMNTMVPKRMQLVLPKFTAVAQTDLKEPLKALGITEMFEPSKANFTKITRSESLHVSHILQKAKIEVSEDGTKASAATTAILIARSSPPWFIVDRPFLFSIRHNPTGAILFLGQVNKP
Described as above.

These results are taken from patent US20220259295A1 (INSERM INSTITUT NATIONAL DE LA SANT ET DE LA RECHERCHE M …, published 2022).

No constants are given. Whether binding was seen depends on the method and setting. Some results given as binding are weak or reduced against the parent protein; the word gives no strength.

B1: A08 (VHH)
VHH: EVQLQASGGGFVQPGGSLRLSCAASGYYSYSSTMGWFRQAPGKEREFVSAISFYSDMAHYYADSVKGRFTISRDNSKNTVYLQMNSLRAEDTATYYCAAFSKLGKIKYWGQGTQVTVSS
notes: Monovalent VHH from the synthetic hs2dAb library; His-tagged, detected by anti-cMyc or anti-6xHis; also called VHH A08; single domain antibody A08; not shown: cMyc tag and 6xHis tag (pHEN2 vector)
Take B1: the binding entry in test [1] and in test [2] was “binds” in each case.

B2: F06 (VHH)
VHH: EVQLQASGGGFVQPGGSLRLSCAASGDTWSLEIMGWFRQAPGKEREFVSAISSEDGWHAYYADSVKGRFTISRDNSKNTVYLQMNSLRAEDTATYYCAKIENWIQAVEGEMSDYWGQGTQVTVSS
notes: Monovalent VHH from the synthetic hs2dAb library; His-tagged, detected by anti-cMyc or anti-6xHis; also called VHH F06; single domain antibody F06; not shown: cMyc tag and 6xHis tag (pHEN2 vector)
Consider B2, for which the binding result in test [1] and in test [2] was “binds” in each case.

B3: B11 (VHH)
VHH: EVQLQASGGGFVQPGGSLRLSCAASGSTWFREIMGWFRQAPGKEREFVSAISSDPTWHAYYADSVKGRFTISRDNSKNTVYLQMNSLRAEDTATYYCAPLAGTESIHWWDPWHESSYWGQGTQVTVSS
notes: Monovalent VHH from the synthetic hs2dAb library, made in E. coli WK6, purified by its His tag, detected by anti-cMyc or anti-6xHis; also called VHH B11; BI 1; not shown: cMyc tag and 6xHis tag (pHEN2 vector)
With B3, the binding result in test [1] and in test [2] was “binds” in each case.

B4: B11-A08 (VHH)
chain: EVQLQASGGGFVQPGGSLRLSCAASGSTWFREIMGWFRQAPGKEREFVSAISSDPTWHAYYADSVKGRFTISRDNSKNTVYLQMNSLRAEDTATYYCAPLAGTESIHWWDPWHESSYWGQGTQVTVSSGGGSGGGSGGGSGGGSEVQLQASGGGFVQPGGSLRLSCAASGYYSYSSTMGWFRQAPGKEREFVSAISFYSDMAHYYADSVKGRFTISRDNSKNTVYLQMNSLRAEDTATYYCAAFSKLGKIKYWGQGTQVTVSSHHHHHH
notes: Bivalent (biparatopic) tandem B11-linker-A08; also called bivalent hybribody B11-A08; bivalent VHH B11A08
Take B4: the binding entry in test [3] and in test [4] was “binds” in each case.

B5: B11-Bv (VHH)
chain: EVQLQASGGGFVQPGGSLRLSCAASGSTWFREIMGWFRQAPGKEREFVSAISSDPTWHAYYADSVKGRFTISRDNSKNTVYLQMNSLRAEDTATYYCAPLAGTESIHWWDPWHESSYWGQGTQVTVSSAAAEVQLQASGGGFVQPGGSLRLSCAASGSTWFREIMGWFRQAPGKEREFVSAISSDPTWHAYYADSVKGRFTISRDNSKNTVYLQMNSLRAEDTATYYCAPLAGTESIHWWDPWHESSYWGQGTQVTVSSHHHHHH
notes: Bivalent (monoparatopic) tandem of two B11 VHHs; also called bivalent hybribody B11-Bv; bivalent VHH B11bv
Consider B5, for which the binding result in test [3] and in test [4] was “binds” throughout.

B6: B11-F06 (VHH)
chain: EVQLQASGGGFVQPGGSLRLSCAASGSTWFREIMGWFRQAPGKEREFVSAISSDPTWHAYYADSVKGRFTISRDNSKNTVYLQMNSLRAEDTATYYCAPLAGTESIHWWDPWHESSYWGQGTQVTVSSGGGSGGGSGGGSGGGSEVQLQASGGGFVQPGGSLRLSCAASGDTWSLEIMGWFRQAPGKEREFVSAISSEDGWHAYYADSVKGRFTISRDNSKNTVYLQMNSLRAEDTATYYCAKIENWIQAVEGEMSDYWGQGTQVTVSSHHHHHH
notes: Bivalent (biparatopic) tandem B11-linker-F06; also called bivalent hybribody B11-F06; bivalent VHH B11F06
With B6, the binding result in test [3] and in test [4] was “binds” each time.
